Results deposited as PubChem BioAssay AID1224830 (NIAID, 2016).
Aim: 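Genes whose knock-down alters the TNF-alpha reporter response to LPS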 (primary screen). System: human THP-1 monocytic leukaemia cells, TNF dual-luciferase reporter clone, PMA-differentiated to macrophage-like cells. Reagents: siRNA pool against human genes, 50 nM. Timing: LPS for 4 h, given about 3 days after siRNA transfection. Conditions: bacterial LPS (TLR4 ligand), 10 ng/ml. Measurement: 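Ratio of firefly to renilla light, scaled to the plate median and expressed as a robust z-score per replicate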. Direction: TNF reporter robust z-score: higher = stronger TNF reporter response to LPS. Rule for the call: 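a well is active when its z-score exceeds 2.8 or falls below -1.5; control wells carry no call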.
The deposit covers about 18,000 reagents; this is a random part of them. About 2,900 of all reagents (16%) were called active. 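Calls are made per well; low scores hint the gene aids the LPS response, high scores that it dampens it.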 Repeated entries: four replicate wells of each siRNA pool. No sequences are given here.

no.	Target gene	TNF reporter robust z-score	outcome
1	PA2G4	-1.12	inactive
2	PA2G4	-0.57	inactive
3	PA2G4	-1.22	inactive
4	PA2G4	-0.42	inactive
5	HSF5	-0.51	inactive
6	HSF5	-0.08	inactive
7	HSF5	0.38	inactive
8	HSF5	-0.18	inactive
9	OR6N1	0.12	inactive
10	OR6N1	-1.96	active
11	OR6N1	0.1	inactive
12	OR6N1	1.11	inactive
13	CDHR1	0.05	inactive
14	CDHR1	1.12	inactive
15	CDHR1	0.49	inactive
16	CDHR1	0.39	inactive
17	ARL6IP1	1.28	inactive
18	ARL6IP1	1.05	inactive
19	ARL6IP1	0.9	inactive
20	ARL6IP1	1.53	inactive
21	PSMB2	-1.99	active
22	PSMB2	-1.44	inactive
23	PSMB2	-1.96	active
24	PSMB2	-1.6	active
25	ANP32D	2.19	inactive
26	ANP32D	1.34	inactive
27	ANP32D	1.7	inactive
28	ANP32D	5.15	active
29	CALM3	-1.32	inactive
30	CALM3	-0.97	inactive
31	CALM3	-0.25	inactive
32	CALM3	0.84	inactive
33	MPEG1	0.45	inactive
34	MPEG1	0.78	inactive
35	MPEG1	0	inactive
36	MPEG1	1.24	inactive
37	HEPACAM	-0.89	inactive
38	HEPACAM	-0.44	inactive
39	HEPACAM	-0.6	inactive
40	HEPACAM	0.42	inactive
41	GPR162	-0.74	inactive
42	GPR162	-1	inactive
43	GPR162	-0.83	inactive
44	GPR162	-0.76	inactive
45	FBXO8	0.09	inactive
46	FBXO8	-2.43	active
47	FBXO8	0.46	inactive
48	FBXO8	0.32	inactive

Sorted by “TNF reporter robust z-score” (descending): some entries from above
Target gene	TNF reporter robust z-score	outcome
FBXO8	0.46	inactive
FBXO8	0.32	inactive
FBXO8	0.09	inactive
GPR162	-0.76	inactive
FBXO8	-2.43	active
